Source: PubChem BioAssay AID504749 (NCATS, 2011).

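Malaria parasite (P. falciparum) lines kept in red blood cells; parasite DNA is measured by SYBR Green fluorescence after lysis, 72 h after compound addition.
Each compound was titrated across a series from about 0.000037 to 29 µM.
The number is the fitted AC50, the concentration giving a half-maximal change in signal; a lower value means higher potency, whether the curve shows a decrease or an increase.
Calls follow the curve class and fit quality: every row here is inconclusive, covering signal-raising curves and weak, poorly fitted, partial or highest-dose-only inhibition curves.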

Values are in µM.
All entries here are filed as inconclusive.
Only part of the assay is shown, chiefly results filed as inconclusive.
Potencies fitted to partial, single-point or poorly fitting curves are rough.
Some entries filed as inconclusive have a full curve.

| structure | condition | Potency (µM) | curve |
|---|---|---|---|
| `CCCc1nn(C)c2c(=O)[nH]c(-c3cc(S(=O)(=O)N4CCN(C)CC4)ccc3OCC)nc12` | W2 | 7.569 | inhibitor, partial curve |
| `CCCc1nn(C)c2c(=O)[nH]c(-c3cc(S(=O)(=O)N4CCN(C)CC4)ccc3OCC)nc12` | DIV30 | 2.686 | inhibitor, partial curve, poor fit |
| `COc1ccccc1OCCNCC(O)COc1cccc2[nH]c3ccccc3c12` (centres unmarked) | CP260 | 10 | inhibitor, single point |
| `COc1ccccc1OCCNCC(O)COc1cccc2[nH]c3ccccc3c12` (centres unmarked) | CP215 | 19.01 | inhibitor, single point |
| `COc1ccccc1OCCNCC(O)COc1cccc2[nH]c3ccccc3c12` (centres unmarked) | PC26 | 13.46 | inhibitor, single point |
| `COc1ccccc1OCCNCC(O)COc1cccc2[nH]c3ccccc3c12` (centres unmarked) | CP269 | 16.94 | inhibitor, single point |
| `COc1ccccc1OCCNCC(O)COc1cccc2[nH]c3ccccc3c12` (centres unmarked) | CP217 | 8.912 | inhibitor, single point |
| `COc1ccccc1OCCNCC(O)COc1cccc2[nH]c3ccccc3c12` (centres unmarked) | DIV30 | 19.01 | inhibitor, single point |
| `COc1ccccc1OCCNCC(O)COc1cccc2[nH]c3ccccc3c12` (centres unmarked) | CP268 | 1.901 | inhibitor, partial curve |
| `COc1ccccc1OCCNCC(O)COc1cccc2[nH]c3ccccc3c12` (centres unmarked) | CP238 | 12.59 | inhibitor, single point |
| `COc1ccccc1OCCNCC(O)COc1cccc2[nH]c3ccccc3c12` (centres unmarked) | 3D7 | 17.78 | inhibitor, single point |
| `COc1ccccc1OCCNCC(O)COc1cccc2[nH]c3ccccc3c12` (centres unmarked) | CP291 | 21.33 | inhibitor, partial curve, poor fit |
| `COc1ccccc1OCCNCC(O)COc1cccc2[nH]c3ccccc3c12` (centres unmarked) | CP252 | 11.22 | inhibitor, single point |
| `COc1ccccc1OCCNCC(O)COc1cccc2[nH]c3ccccc3c12` (centres unmarked) | CP250 | 11.22 | inhibitor, single point |
| `COc1ccccc1OCCNCC(O)COc1cccc2[nH]c3ccccc3c12` (centres unmarked) | CP185 | 17.78 | inhibitor, single point |
| `COc1ccccc1OCCNCC(O)COc1cccc2[nH]c3ccccc3c12` (centres unmarked) | ATS189 | 17.78 | inhibitor, single point |
| `COc1ccccc1OCCNCC(O)COc1cccc2[nH]c3ccccc3c12` (centres unmarked) | P93_24 | 5.012 | inhibitor, partial curve, poor fit |
| `COc1ccccc1OCCNCC(O)COc1cccc2[nH]c3ccccc3c12` (centres unmarked) | CP203 | 19.01 | inhibitor, single point |
| `COc1ccccc1OCCNCC(O)COc1cccc2[nH]c3ccccc3c12` (centres unmarked) | TAB165 | 5.623 | inhibitor, partial curve, poor fit |
| `COc1ccccc1OCCNCC(O)COc1cccc2[nH]c3ccccc3c12` (centres unmarked) | CP335 | 1.901 | inhibitor, full curve |
| `COc1ccccc1OCCNCC(O)COc1cccc2[nH]c3ccccc3c12` (centres unmarked) | CP247 | 12.59 | inhibitor, partial curve |
| `COc1ccccc1OCCNCC(O)COc1cccc2[nH]c3ccccc3c12` (centres unmarked) | DIV17 | 12 | inhibitor, single point |
| `COc1ccccc1OCCNCC(O)COc1cccc2[nH]c3ccccc3c12` (centres unmarked) | PAD | 11.22 | inhibitor, single point |
| `COc1ccccc1OCCNCC(O)COc1cccc2[nH]c3ccccc3c12` (centres unmarked) | CP191 | 12.59 | inhibitor, single point |
| `COc1ccccc1OCCNCC(O)COc1cccc2[nH]c3ccccc3c12` (centres unmarked) | CP194 | 10.69 | inhibitor, partial curve, poor fit |
| `COc1ccccc1OCCNCC(O)COc1cccc2[nH]c3ccccc3c12` (centres unmarked) | GB4 | 6.746 | inhibitor, partial curve |
| `COc1ccccc1OCCNCC(O)COc1cccc2[nH]c3ccccc3c12` (centres unmarked) | CP262 | 19.01 | inhibitor, partial curve, poor fit |
| `COc1ccccc1OCCNCC(O)COc1cccc2[nH]c3ccccc3c12` (centres unmarked) | Dd2 | 11.22 | inhibitor, single point |
| `CC(=O)O[C@@]1(C(C)=O)CCC2C3CC(C)C4=CC(=O)CC[C@@]4(C)C3CC[C@]21C` (some centres unmarked) | CP191 | 11.22 | inhibitor, single point |
| `CC(=O)O[C@@]1(C(C)=O)CCC2C3CC(C)C4=CC(=O)CC[C@@]4(C)C3CC[C@]21C` (some centres unmarked) | AA1029 | 10 | inhibitor, single point |
| `CC(=O)O[C@@]1(C(C)=O)CCC2C3CC(C)C4=CC(=O)CC[C@@]4(C)C3CC[C@]21C` (some centres unmarked) | PC15 | 10 | inhibitor, single point |
| `CC(=O)O[C@@]1(C(C)=O)CCC2C3CC(C)C4=CC(=O)CC[C@@]4(C)C3CC[C@]21C` (some centres unmarked) | ATS95 | 11.22 | inhibitor, single point |
| `CC(=O)O[C@@]1(C(C)=O)CCC2C3CC(C)C4=CC(=O)CC[C@@]4(C)C3CC[C@]21C` (some centres unmarked) | SC27B | 17.78 | inhibitor, single point |
| `CC(=O)O[C@@]1(C(C)=O)CCC2C3CC(C)C4=CC(=O)CC[C@@]4(C)C3CC[C@]21C` (some centres unmarked) | ICS | 10 | inhibitor, single point |
| `CC(=O)O[C@@]1(C(C)=O)CCC2C3CC(C)C4=CC(=O)CC[C@@]4(C)C3CC[C@]21C` (some centres unmarked) | CP185 | 10 | inhibitor, single point |
| `CC(=O)O[C@@]1(C(C)=O)CCC2C3CC(C)C4=CC(=O)CC[C@@]4(C)C3CC[C@]21C` (some centres unmarked) | HB3 | 12.59 | inhibitor, single point |

For reference, 3 entries once more:

{"structure": "COc1ccccc1OCCNCC(O)COc1cccc2[nH]c3ccccc3c12", "stereo": "centres unmarked", "condition": "CP238", "Potency (µM)": "12.59", "curve": "inhibitor, single point"}
{"structure": "COc1ccccc1OCCNCC(O)COc1cccc2[nH]c3ccccc3c12", "stereo": "centres unmarked", "condition": "CP335", "Potency (µM)": "1.901", "curve": "inhibitor, full curve"}
{"structure": "COc1ccccc1OCCNCC(O)COc1cccc2[nH]c3ccccc3c12", "stereo": "centres unmarked", "condition": "CP194", "Potency (µM)": "10.69", "curve": "inhibitor, partial curve, poor fit"}